This data set is described as follows: Carbon dioxide absorption by NRH2 solution from CO2 inlet gas streams. Particulars: for carbon dioxide absorbed: 1 mL of 50 mM NRH2, 15% carbon dioxide.

The source of these data is US20250339812A1, “ELECTROCHEMICAL DIRECT AIR CAPTURE OF CARBON DIOXIDE USING REVERSIBLE REDOX-ACTIVE MATERIAL” (Massachusetts Institute of Technology, priority 2022, published 2025).

Turning to `Cc1cc2c(cc1N)Nc1cc(N(C)C)ccc1N2` [NRH2, leuco-neutral red], the carbon dioxide absorbed is reported as 1.56 equivalent to NRH2. This compound gave a carbon dioxide absorbed (saturation) of 78 µmol. Also, the “amount of absorbed carbon dioxide higher than with EDA” value (15% carbon dioxide inlet gas stream, 50 mM solutions) is given as 56%.
